Reference: paper PMC11321632
No constants are given. Whether binding was seen depends on the method and setting. Some binding calls cover weakened binding; strength is not graded here.

The chains behind the UniProt entries cited, without tags or fusion partners. Residues count along the entry.
UniProt P51150: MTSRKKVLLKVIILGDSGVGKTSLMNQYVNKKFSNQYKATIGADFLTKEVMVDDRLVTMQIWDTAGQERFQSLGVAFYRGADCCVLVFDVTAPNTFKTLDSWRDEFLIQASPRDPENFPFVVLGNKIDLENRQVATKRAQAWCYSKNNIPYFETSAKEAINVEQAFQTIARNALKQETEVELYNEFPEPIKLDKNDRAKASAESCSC
UniProt Q8K2C6, residues 37-310: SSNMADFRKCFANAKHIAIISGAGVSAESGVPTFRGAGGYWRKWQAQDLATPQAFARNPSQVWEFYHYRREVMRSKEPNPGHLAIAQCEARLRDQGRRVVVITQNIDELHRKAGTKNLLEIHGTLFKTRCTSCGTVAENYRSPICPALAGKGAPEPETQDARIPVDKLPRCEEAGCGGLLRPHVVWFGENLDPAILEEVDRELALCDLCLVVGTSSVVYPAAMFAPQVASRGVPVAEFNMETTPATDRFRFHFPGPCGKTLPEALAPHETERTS

Molecular target: Lysosomal Ras-associated protein 7a (RAB7A), recombinant mouse protein (mouse) (UniProt P51150)
Assay: SPR; RAB7A immobilised on a CM5 chip; twofold dilution series of SIRT5 injected at 10 µl/min for 60 s, dissociation 90 s; BIAcore T200; 1:1 Langmuir model; both purified

binding: binds
Substance: Sirtuin 5 (SIRT5), recombinant mouse protein (from UniProt Q8K2C6 37-310) (enzyme)
